19 compounds from PubChem BioAssay AID270 (DTP/NCI, 2004) can be followed below.

The list shows only some results of the screen, not a fair sample: it gathers tests that were run many times, whatever their T/C, doses with no T/C, and many T/C values between a quarter and a half above the control. Other doses and runs of a compound stand elsewhere. T/C: endpoint of the treated group in % of that of the vehicle group. Schedule codes are those of the source, read here as Q, the interval in days (D) or hours (H), X, the number of doses. Some T/C values are followed by the survivors on the day toxicity was checked, most often the fifth; without a count, all were alive then. Some entries give survivors of the animals treated and no T/C: the source files T/C as zero there, which appears to mark a toxic dose or a test without result, not a measured value. Some survivor counts are full or nearly so, which does not show that the dose was tolerated: survival well below the control is almost never listed, so the zero probably covers shortened survival too. Survivors were counted at the toxicity check, usually on the fifth day, unless a day is given; later deaths do not show. Some doses were run more than once; their values stand side by side, smallest first. Where survival is the endpoint, this PubChem deposit counts one and a half times the control or more as active, and values a quarter to a half above the control carry no call in these data; other NCI protocols may use other cut-offs.

In the test the test system is BDF1 mice, s.c. Lewis lung carcinoma, T/C %. In words: NCI In Vivo Anticancer Drug Screen. Data for tumor model Lewis Lung Carcinoma (subcutaneous) in B6D2F1 (BDF1) mice. Put shortly: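 The value reflects a ratio in which the treated cohort's survival time or tumour size is compared against mice receiving only vehicle.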
Setting [1] is: T/C endpoint: median survival time, dose: 8.0 mg/kg/injection, schedule: Q01DX009 (ip), vehicle: saline, higher T/C = longer survival.
Where [2] appears, read: T/C endpoint: median survival time, dose: 100.0 mg/kg/injection, schedule: Q01DX009 (ip), vehicle: Klucel (hydroxypropylcellulose) (HPC), higher T/C = longer survival.
The mark [3] stands for this setting: T/C endpoint: mean tumor weight, dose: 10.0 mg/kg/injection, schedule: Q01DX011 (ip), vehicle: carboxymethylcellulose (CMC), higher T/C = larger tumour.

Take `S=P(N1CC1)(N1CC1)N1CC1`: the survivor count is, setting by setting: (T/C endpoint: median survival time, dose: 6.0 mg/kg/injection, schedule: Q01DX009 (ip), vehicle: Klucel (hydroxypropylcellulose) (HPC), higher T/C = longer survival) 10 of 10; under setting [1], 10 of 10; (T/C endpoint: median survival time, dose: 12.0 mg/kg/injection, schedule: Q01DX009 (ip), vehicle: Klucel (hydroxypropylcellulose) (HPC), higher T/C = longer survival) 10 of 10; (T/C endpoint: median survival time, dose: 16.0 mg/kg/injection, schedule: Q01DX009 (ip), vehicle: saline, higher T/C = longer survival) 7 of 10; (T/C endpoint: median survival time, dose: 16.0 mg/kg/injection, schedule: Q02DX009 (ip), vehicle: saline, higher T/C = longer survival) 10 of 10; (T/C endpoint: median survival time, dose: 24.0 mg/kg/injection, schedule: Q01DX009 (ip), vehicle: Klucel (hydroxypropylcellulose) (HPC), higher T/C = longer survival) 6 of 10. Further, the survivor count runs as follows: (T/C endpoint: median survival time, dose: 32.0 mg/kg/injection, schedule: Q02DX009 (ip), vehicle: saline, higher T/C = longer survival) 10 of 10; (T/C endpoint: median survival time, dose: 64.0 mg/kg/injection, schedule: Q02DX009 (ip), vehicle: saline, higher T/C = longer survival) 0 of 10.

Take `COc1ccc(-c2cc(=O)c3c(O)cc(OC)cc3o2)cc1`: the survivor count (T/C endpoint: mean tumor weight, dose: 220.0 mg/kg/injection, schedule: Q01DX011 (ip), vehicle: saline, higher T/C = larger tumour) was 2 of 4.

Regarding `c1cc[c]([Sn]([S][Sn]([c]2ccccc2)([c]2ccccc2)[c]2ccccc2)([c]2ccccc2)[c]2ccccc2)cc1`, the survivor count (T/C endpoint: median survival time, dose: 400.0 mg/kg/injection, schedule: Q01DX009 (ip), vehicle: saline with Tween-80, higher T/C = longer survival) was 10 of 10.

Consider `OC(C1CO1)C(O)C1CO1` (stereo unspecified), for which the survivor count (T/C endpoint: mean tumor weight (est.), dose: 4.0 mg/kg/injection, schedule: Q01DX009 (ip), vehicle: saline, higher T/C = larger tumour) is 1 of 6; the survivor count (T/C endpoint: mean tumor weight (est.), dose: 8.0 mg/kg/injection, schedule: Q04DX003 (ip), vehicle: saline, higher T/C = larger tumour) was 3 of 6; the survivor count (T/C endpoint: median survival time, dose: 4.0 mg/kg/injection, schedule: Q01DX009 (ip), vehicle: saline, higher T/C = longer survival) is on record as 1 of 6; the survivor count under setting [1] is 0 of 6; the survivor count (T/C endpoint: median survival time, dose: 8.0 mg/kg/injection, schedule: Q04DX003 (ip), vehicle: saline, higher T/C = longer survival) is 3 of 6; the survivor count (T/C endpoint: median survival time, dose: 16.0 mg/kg/injection, schedule: Q04DX003 (ip), vehicle: saline, higher T/C = longer survival) is 0 of 6.

For the compound `CC(=O)C(O)N1C(=O)C=CC1=O` (stereo unspecified), the T/C was 131 % of control (T/C endpoint: median survival time, dose: 0.62 mg/kg/injection, schedule: Q02DX009 (ip), vehicle: saline, higher T/C = longer survival) and 141 % of control (T/C endpoint: median survival time, dose: 2.5 mg/kg/injection, schedule: Q01DX009 (ip), vehicle: saline, higher T/C = longer survival). The survivor count (T/C endpoint: median survival time, dose: 10.0 mg/kg/injection, schedule: Q01DX009 (ip), vehicle: saline, higher T/C = longer survival) was 6 of 10 and 7 of 10; the survivor count (T/C endpoint: median survival time, dose: 10.0 mg/kg/injection, schedule: Q02DX009 (ip), vehicle: saline, higher T/C = longer survival) was 10 of 10.

As to `CC(=O)Nc1ccc(Cl)c(Cl)c1`, the T/C under setting [2] was 137 % of control. Moreover, under “T/C endpoint: median survival time, dose: 200.0 mg/kg/injection, schedule: Q01DX009 (ip), vehicle: Klucel (hydroxypropylcellulose) (HPC), higher T/C = longer survival”, the survivor count is given as 9 of 10.

Take `CCc1ccccc1N1CCN(C(=O)c2cc(OC)c(OC)c(OC)c2)CC1`: the survivor count (T/C endpoint: mean tumor weight, dose: 100.0 mg/kg/injection, schedule: Q01DX011 (ip), vehicle: carboxymethylcellulose (CMC), higher T/C = larger tumour) is reported as 0 of 6.

For `NC(=O)c1ccc(NC(=O)CCC(=O)Nc2ccc(C(N)=O)cn2)nc1`, the survivor count is, setting by setting: (T/C endpoint: mean tumor weight, dose: 5.0 mg/kg/injection, schedule: Q01DX011 (ip), vehicle: carboxymethylcellulose (CMC), higher T/C = larger tumour) 0 of 7; under setting [3], 0 of 7.

For the compound `OCCc1ccccc1`, the survivor count (T/C endpoint: mean tumor weight, dose: 500.0 mg/kg/injection, schedule: Q01DX011 (ip), vehicle: saline, higher T/C = larger tumour) is given as 0 of 6.

Regarding `Nc1nc(=S)c2[nH]c(N=Nc3ccc(S(=O)(=O)Nc4ccccn4)cc3)nc2[nH]1`, the survivor count runs as follows: (T/C endpoint: median survival time, dose: 6.25 mg/kg/injection, schedule: Q01DX009 (ip), vehicle: Klucel (hydroxypropylcellulose) (HPC), higher T/C = longer survival) 10 of 10; (T/C endpoint: median survival time, dose: 12.5 mg/kg/injection, schedule: Q01DX009 (ip), vehicle: Klucel (hydroxypropylcellulose) (HPC), higher T/C = longer survival) 9 of 10; (T/C endpoint: median survival time, dose: 25.0 mg/kg/injection, schedule: Q01DX009 (ip), vehicle: Klucel (hydroxypropylcellulose) (HPC), higher T/C = longer survival) 10 of 10; (T/C endpoint: median survival time, dose: 50.0 mg/kg/injection, schedule: Q01DX009 (ip), vehicle: Klucel (hydroxypropylcellulose) (HPC), higher T/C = longer survival) 8 of 10; under setting [2], 7 of 10.

Consider `C=C(C(=O)O)C(=O)O`, for which the survivor count (T/C endpoint: median survival time, dose: 400.0 mg/kg/injection, schedule: Q01DX009 (ip), vehicle: saline, higher T/C = longer survival) is listed as 1 of 10.

Turning to `CO[C@@H]1[C@@H](OC2OC(C)C(OC3CC(C)(O)C(OC(=O)CC(C)C)C(C)O3)C(N(C)C)C2O)[C@@H](CC=O)C[C@@H](C)C(=O)/C=C/C2O[C@H]2C[C@@H](C)OC(=O)C[C@H]1OC(C)=O` (stereo partly specified), the survivor count (T/C endpoint: mean tumor weight, dose: 600.0 mg/kg/injection, schedule: Q01DX011 (ip), vehicle: saline, higher T/C = larger tumour) is 3 of 6.

For the compound `CC1OC(O[C@@H]2C=C3CC[C@@H]4[C@H](CC[C@]5(C)[C@@H](c6ccc(=O)oc6)CC[C@]45O)[C@@]3(C)CC2)C(O)C(OC2OC(CO)C(O)C(O)C2O)C1O` (stereo partly specified), the survivor count is, setting by setting: under setting [3], 3 of 6; (T/C endpoint: mean tumor weight, dose: 20.0 mg/kg/injection, schedule: Q01DX011 (ip), vehicle: carboxymethylcellulose (CMC), higher T/C = larger tumour) 3 of 6; (T/C endpoint: mean tumor weight, dose: 40.0 mg/kg/injection, schedule: Q01DX011 (ip), vehicle: carboxymethylcellulose (CMC), higher T/C = larger tumour) 0 of 6.

For the compound `CC(=O)OC1CCC(NC(=O)N(CCCl)N=O)CC1` (stereo unspecified), where the note is “T/C endpoint: median survival time, dose: 36.0 mg/kg/injection, schedule: Q01DX001 (ip), vehicle: other, higher T/C = longer survival”, the T/C is 134 % of control.

For the compound `Cc1ccc2nc(-c3ccc(N=Cc4ccccc4O)cc3)sc2c1`, the survivor count is, setting by setting: (T/C endpoint: median survival time, dose: 12.5 mg/kg/injection, schedule: Q01DX009 (ip), vehicle: olive oil, sesame oil, peanut oil, higher T/C = longer survival) 10 of 10; (T/C endpoint: median survival time, dose: 25.0 mg/kg/injection, schedule: Q01DX009 (ip), vehicle: olive oil, sesame oil, peanut oil, higher T/C = longer survival) 9 of 10; (T/C endpoint: median survival time, dose: 50.0 mg/kg/injection, schedule: Q01DX009 (ip), vehicle: olive oil, sesame oil, peanut oil, higher T/C = longer survival) 10 of 10; (T/C endpoint: median survival time, dose: 100.0 mg/kg/injection, schedule: Q01DX009 (ip), vehicle: olive oil, sesame oil, peanut oil, higher T/C = longer survival) 10 of 10; (T/C endpoint: median survival time, dose: 400.0 mg/kg/injection, schedule: Q01DX009 (ip), vehicle: olive oil, sesame oil, peanut oil, higher T/C = longer survival) 10 of 10.

Take `N#Cc1ccc(NC(=O)N(CCCl)N=O)cc1`: the survivor count was 2 of 10 on day 14 (T/C endpoint: median tumor weight (est.), dose: 67.0 mg/kg/injection, schedule: Q01DX001 (ip), vehicle: Klucel (hydroxypropylcellulose) (HPC), higher T/C = larger tumour); 0 of 10 on day 14 and 6 of 10 on day 13 (T/C endpoint: median tumor weight (est.), dose: 100.0 mg/kg/injection, schedule: Q01DX001 (ip), vehicle: Klucel (hydroxypropylcellulose) (HPC), higher T/C = larger tumour); 0 of 10 on day 14 (T/C endpoint: median tumor weight (est.), dose: 150.0 mg/kg/injection, schedule: Q01DX001 (ip), vehicle: Klucel (hydroxypropylcellulose) (HPC), higher T/C = larger tumour); 0 of 10 on day 14 (T/C endpoint: median tumor weight (est.), dose: 225.0 mg/kg/injection, schedule: Q01DX001 (ip), vehicle: Klucel (hydroxypropylcellulose) (HPC), higher T/C = larger tumour); 0 of 10 on day 14 (T/C endpoint: median tumor weight (est.), dose: 338.0 mg/kg/injection, schedule: Q01DX001 (ip), vehicle: Klucel (hydroxypropylcellulose) (HPC), higher T/C = larger tumour); 0 of 10 on day 14 (T/C endpoint: median tumor weight (est.), dose: 507.0 mg/kg/injection, schedule: Q01DX001 (ip), vehicle: Klucel (hydroxypropylcellulose) (HPC), higher T/C = larger tumour).

For the compound `CC(=O)c1ccc(-c2ccccc2)cc1`, the survivor count (T/C endpoint: mean tumor weight, dose: 148.0 mg/kg/injection, schedule: Q01DX011 (ip), vehicle: other, higher T/C = larger tumour) is reported as 3 of 6 and the survivor count (T/C endpoint: mean tumor weight, dose: 500.0 mg/kg/injection, schedule: Q01DX011 (ip), vehicle: other, higher T/C = larger tumour) is 3 of 6. For the same compound, the T/C (T/C endpoint: mean tumor weight, dose: 1000.0 mg/kg/injection, schedule: Q01DX011 (ip), vehicle: other, evaluated on day 12, higher T/C = larger tumour) is 145 % of control [5 of 6 alive].

Consider `O=C1CCC(=O)N1Br`, for which the T/C (T/C endpoint: mean tumor weight, dose: 22.0 mg/kg/injection, schedule: Q01DX011 (ip), vehicle: other, evaluated on day 12, higher T/C = larger tumour) was 133 % of control and the T/C (T/C endpoint: mean tumor weight, dose: 33.0 mg/kg/injection, schedule: Q01DX011 (ip), vehicle: other, evaluated on day 12, higher T/C = larger tumour) is 135 % of control. The survivor count (T/C endpoint: mean tumor weight, dose: 600.0 mg/kg/injection, schedule: Q01DX011 (ip), vehicle: other, higher T/C = larger tumour) was 1 of 6.

In the case of `NC(=O)c1csc(C2OC(CO)C(O)C2O)n1` (stereo unspecified), the T/C is 139 % of control (T/C endpoint: median survival time, dose: 9.38 mg/kg/injection, schedule: Q01DX009 (ip), vehicle: water, evaluated on day 56, higher T/C = longer survival) and 141 % of control (T/C endpoint: median survival time, dose: 9.38 mg/kg/injection, schedule: Q01DX009 (ip), vehicle: water, evaluated on day 70, higher T/C = longer survival).
